{"source": "paper PMC10858868", "about": "“TFIP11 promotes replication fork reversal to preserve genome stability”", "test_system": "TFIP11 GCFC-domain deletion mutant", "assay": "EMSA", "conditions": "7.5-30 nM protein, 0.5 nM DNA; EMSA: 10 mM MgCl2, 2.5% glycerol, 0.05% NP-40, 0.5 nM biotin-DNA, 20 min, room temperature (Pierce LightShift kit); recombinant protein; protein details: His-SUMO (N-terminal); label: 5'-biotin on oligo 1", "note": "For at least one entry, the source does not settle the construct or the ends of the probe. Negatives hold for the conditions tested.", "data": [{"sequence": "GACGCTGCCGAATTCTACCAGTGCCTTGCTAGGACATCTTTGCCCACCTGCAGGTTCAC / ATAGTCGGATCCTCTAGACAGCTCCATGTAGCAAGGCACTGGTAGAATTCGGCAGCGTC [splayed arm (oligo 1 + oligo 3)]", "values": [{"measurement": "binding result", "result": "no binding"}]}]}
